According to PubChem BioAssay AID624297 (National Center for Advancing Translational Sciences (NCATS), 2012):
Among all 340,000 compounds or so, about 6,200 (1.8%) were called active. The shares of active, inactive and inconclusive entries below differ from those in the screen. The call rests on the fitted dose curve; in most records, active means well fitted activation curve with a large enough effect; inconclusive means small, poorly fitted or top-dose-only effect; inactive means no such curve, though single readings can be large or run the other way. Where the call is inconclusive, the potency comes from a doubtful curve fit.

Test: A quantitative high throughput screen for small molecules that induce DNA re-replication in SW480 colon adenocarcinoma cells. Further: nearly all actives have a fitted effect of over 55% in size. On re-replication activation: % of control where 0% means no effect.
Conditions: Hoechst DNA content imaging, 48 h; re-replication activation: at 46.1 µM (top of the series) unless noted
Procedure, shortened: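 Image-based DNA-content assay: after two days of treatment, nuclei were labelled with the DNA dye Hoechst and imaged, and hits were compounds raising the count of nuclei showing high fluorescence intensity.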
Potency means the concentration at half of the fitted maximal effect.

Row | Structure (SMILES) | Potency | re-replication activation
1 | O=C(c1ccccc1)[C@@H]1[C@@H]2C(=O)N(c3ccc(F)cc3)C(=O)[C@@H]2C2CCCN21 (stereo partly drawn) | inconclusive: 20.6 µM [activator, single point] | –
2 | Cn1c(=O)c2c(nc(CN3CCc4ccccc4C3)n2Cc2ccccc2F)n(C)c1=O | inconclusive: 29.1 µM [activator, single point] | –
3 | COc1ccc(/C(C)=N/OC/C(O)=C(\C#N)c2nc3ccccc3[nH]2)cc1OC | inconclusive: 29.1 µM [activator, partial curve, poor fit] | –
4 | CN(C)CC1CCC/C(=C\c2ccc(OC(=O)/C=C/c3ccccc3)cc2)C1=O (stereo not drawn) | inconclusive: 23.1 µM [activator, partial curve, poor fit] | –
5 | COc1cc(Cl)c(C)cc1NC(=O)c1ccc(NS(=O)(=O)c2ccc(F)c(F)c2)cc1 | inconclusive: 25.9 µM [activator, single point] | –
6 | NC(=O)CSc1nnc(-c2cccc(S(=O)(=O)N3CCOCC3)c2)n1C1CCCCCC1 | inconclusive: 29.1 µM [activator, single point] | –
7 | CC(C)(C)C(=O)Nc1cc2nn(-c3ccccc3)nc2cc1Cl | active: 7.31 µM | –
8 | O=C(CN(C(=O)c1csnn1)c1ccccc1F)NCc1ccccc1 | – | inactive: -12.3%
9 | Cc1cccc(C(=O)NC(=S)NCc2ccccc2)c1 | – | inactive: -7.47%
10 | CC1=NN(c2ccc(Br)cc2)C(=O)/C1=C/c1cccs1 | inconclusive: 32.6 µM [activator, partial curve, poor fit] | –
11 | COc1ccc(Cl)cc1NC(=O)COC(=O)Cc1cc(OC)c(OC)c(OC)c1 | – | inactive: -1.82%
12 | C=CC[C@H](CC(=O)N(CCO)Cc1ccccc1)C(=O)N[C@H](COC(=O)[C@H](CC=C)CC(=O)OC(C)(C)C)Cc1ccccc1 | inconclusive: 29.1 µM [activator, single point] | –
13 | COc1ccccc1-c1nnc(SCC(=O)Nc2cc(C)on2)o1 | inconclusive: 29.1 µM [activator, single point] | –
14 | CCCOC(=O)C1=C(C)NC2=C(C(=O)C(C(=O)OC)C(C)C2)C1c1ccc(N(C)C)cc1 (stereo not drawn) | inconclusive: 23.1 µM [activator, partial curve, poor fit] | –
15 | CCCCNC(=S)NCc1ccc2[nH]c(C)cc2c1 | – | inactive: -2.83%
16 | CCOC(=O)c1c2c3c(c(Cl)ccc3[nH]c1=O)C(=O)c1ccccc1-2 | – | inactive: -22%
17 | COc1ncnc2c1oc1ccccc12 | – | inactive: 12%
18 | Cc1cccc(Nc2ncccc2C(=O)O)c1C | inconclusive: 1.26 µM [activator, single point] | –
19 | Cc1cc(Cl)ccc1OCC(=O)N(Cc1ccco1)c1c(N)n(Cc2ccccc2)c(=O)[nH]c1=O | inconclusive: 29.1 µM [activator, single point] | –
20 | O=C1c2ccccc2C(=O)N1CCCCN(C(=O)c1cc2ccccc2oc1=O)c1ccc(Cl)cc1 | – | inactive: -3.99%
21 | Cc1ccc(-n2nc3c(c2NC(=O)c2ccc(F)c(F)c2)CS(=O)(=O)C3)cc1 | – | inactive: -2.05%
22 | NC(=O)CC(NC(=O)c1ccccc1)c1ccc(NC2CCN(Cc3ccccc3)CC2)c([N+](=O)[O-])c1 (stereo not drawn) | – | inactive: 0.418%
23 | COc1ccc(S(=O)(=O)N2CCC3CC2c2cc(N4CCOCC4)ccc23)cc1 (stereo not drawn) | inconclusive: 0.092 µM [activator, partial curve, poor fit] | –

Individual results from the entries so far.
Entry for `NC(=O)CSc1nnc(-c2cccc(S(=O)(=O)N3CCOCC3)c2)n1C1CCCCCC1` under Potency: inconclusive: 29.1 µM [activator, single point]
Entry for `CCCCNC(=S)NCc1ccc2[nH]c(C)cc2c1` under re-replication activation: inactive: -2.83%

(more compounds)

Row | Structure (SMILES) | Potency | re-replication activation
24 | O=C1CCC(=O)O1 | inconclusive: 0.0259 µM [activator, partial curve, poor fit] | –
25 | N#C/C(=C\c1cccc(Oc2ccccc2)c1)C(=O)N1CCOCC1 | inconclusive: 16.4 µM [activator, partial curve, poor fit] | –
26 | CCOc1cc(N2CCOCC2)c(OCC)cc1NS(=O)(=O)c1ccc(Cl)s1 | active: 18.4 µM | –
27 | O=C(CCCn1c(=O)[nH]c2ccccc2c1=O)N1CCN(c2ccccn2)CC1 | – | inactive: -12.2%
28 | CC(C)(C)c1ccc(OCc2ccc(C(=O)Nc3cccnc3)o2)cc1 | inconclusive: 25.9 µM [activator, single point] | –
29 | Cc1nc(S(=O)(=O)N(C)c2ccccc2)c(C#N)c(C)c1Cl | active: 9.2 µM | –
30 | C[C@@H]1C[C@@H]2OC(=O)[C@]3(C)[C@H]2[C@@H](OC3(C)O)[C@]2(C)C(=O)C=C[C@H]12 (stereo partly drawn) | inconclusive: 32.6 µM [activator, partial curve, poor fit] | –
31 | Cc1nn(Cc2ccc(C(=O)N3N=C(C(F)F)CC3(O)C(F)F)o2)c(C)c1[N+](=O)[O-] (stereo not drawn) | – | inactive: 0.25%
32 | Cc1nc([N+](=O)[O-])c(Sc2nc3ccccc3n2C)n1Cc1ccccc1 | inconclusive: 29.1 µM [activator, single point] | –
33 | CNC(=S)N/N=C(\C)c1ccc(C)c(C)c1 | inconclusive: 29.1 µM [activator, single point] | –
34 | COc1cc(OC)cc(C(=O)NCC(=O)N2CCN(c3ccc(O)cc3)CC2)c1 | inconclusive: 20.6 µM [activator, partial curve, poor fit] | –
35 | CCc1cc(=O)oc2cc3occ(-c4ccc(OC)c(F)c4)c3cc12 | inconclusive: 25.9 µM [activator, single point] | –
36 | CC(=O)Nc1ccc(SC[C@H](CC(C)C)N2CCN(CCc3ccccc3)CCC2=O)cc1 | inconclusive: 32.6 µM [activator, partial curve, poor fit] | –
37 | CC1=CCC(C(=O)O)C(C(=O)Nc2cccnc2)C1 (stereo not drawn) | inconclusive: 2.91 µM [activator, partial curve, poor fit] | –
38 | COc1ccc(C)cc1NS(=O)(=O)c1ccc(-c2cnc(C3CC3)o2)cc1 | active: 0.13 µM | –
39 | C[C@]12CC[C@@H]3c4ccc(O)cc4CC[C@H]3[C@@H]1CCC2OC(=O)CCC1CCCC1 (stereo partly drawn) | inconclusive: 33.5 µM [activator, single point] | –
40 | O=[N+]([O-])c1ccccc1/C=C/C=N/n1c(-c2cc(-c3ccccc3)n[nH]2)n[nH]c1=S | – | inactive: -112%
41 | CCOc1ccc(/C=C/C(=O)c2cc(Br)ccc(=O)c2O)cc1 | inconclusive: 17.8 µM [activator, single point] | –
42 | CCN(CC(=O)Nc1c(F)cccc1F)C(=O)CNC(=O)COc1ccccc1 | – | inactive: -1.18%
43 | O=C1OC(C(=O)O)Cc2ccccc21 (stereo not drawn) | inconclusive: 29.1 µM [activator, single point] | –
44 | OC(CNc1ccnc2cc(Cl)ccc12)CNC1CCCCC1 (stereo not drawn) | active: 23.1 µM | –
45 | CCOc1c(C)cnc2c1c(=O)n(Cc1ccccc1Cl)c(=O)n2C | inconclusive: 20.6 µM [activator, single point] | –
46 | COc1ccc(CCNC(=O)C2CCN(Cc3nc(-c4ccccc4C)oc3C)CC2)cc1OC | – | inactive: 1.73%

A second format for part of the listing above:
O=C1OC(C(=O)O)Cc2ccccc21 (stereo not drawn)
  Potency: inconclusive: 29.1 µM [activator, single point]
OC(CNc1ccnc2cc(Cl)ccc12)CNC1CCCCC1 (stereo not drawn)
  Potency: active: 23.1 µM

Later entries.

Row | Structure (SMILES) | Potency | re-replication activation
47 | COC(=O)c1sccc1NC(=O)CSc1ccccc1N | – | inactive: -54.1%
48 | CN(C)CCCN(C(=O)c1ccc(C(=O)c2ccccc2)cc1)c1nc2ccc(F)cc2s1 | – | inactive: -1.32%
49 | O=C(CCC1CCCCC1)Nc1cccnc1 | inconclusive: 0.631 µM [activator, full curve, poor fit] | –
50 | COc1ccc2c(c1)CC=C1C2CCC2(C)C(=O)C(=NO)CC12 (stereo not drawn) | inconclusive: 29.1 µM [activator, single point] | –
51 | N#CCC(CNc1ncc(C(F)(F)F)cc1Cl)OC(=O)c1ccc(Cl)cc1 (stereo not drawn) | inconclusive: 16.4 µM [activator, single point] | –
52 | COc1ccc(-c2c/c(=N\c3nc(-c4ccccc4)c(C)s3)c3ccccc3o2)cc1O | inconclusive: 10.3 µM [activator, single point] | –
53 | CC[C@]12c3[nH]c4cc(-c5ccco5)ccc4c3CCN1C(=O)[C@@H](CC(=O)NC(C)(C)C)C[C@@H]2C(=O)N1CCN(C(=O)c2ccco2)CC1 | – | inactive: 7.47% [at 9.22 µM]
54 | CN1CCN(S(=O)(=O)c2ccc(N3CCN(S(=O)(=O)/C=C/c4ccccc4)CC3)nc2)CC1 | inconclusive: 18.4 µM [activator, single point] | –
55 | CN1CCN(C=Nc2nc3ccccc3nc2N2CCCC2)CC1 | inconclusive: 29.1 µM [activator, partial curve, poor fit] | –
56 | COc1ccc(CNC(=S)Nc2ccc(-c3ccccc3)cc2)cc1 | – | inactive: -0.311%
57 | CC(=O)/C(N)=N/Nc1cccc(Cl)c1 | inconclusive: 3.66 µM [activator, single point] | –
58 | Cc1ccc(O)c(-c2cc(-c3ccccc3C)[nH]n2)c1 | inconclusive: 20.6 µM [activator, single point] | –
59 | CCCC(=O)N(CCN1CCOCC1)c1nc2c(F)cc(F)cc2s1 | inconclusive: 6.51 µM [activator, partial curve, poor fit] | –
60 | Cc1ccc2cc(/C=N/Nc3ccc(C(=O)O)cc3)c(Cl)nc2c1 | inconclusive: 18.4 µM [activator, single point] | –
61 | O=C(O)c1csc(-c2cccs2)n1 | inconclusive: 0.13 µM [activator, partial curve, poor fit] | –
62 | Cc1cccc(NC(=O)CSCC(=O)Nc2ccccc2N2CCCCC2)c1 | inconclusive: 1.03 µM [activator, full curve, poor fit] | –
63 | CC(=O)c1c(C)[nH]c(C(=O)CSc2nnc(-c3cccs3)n2Cc2ccccc2)c1C | – | inactive: 19.9%
64 | Cc1cc(NC(=O)C(=O)NCc2cccc(Cl)c2)no1 | inconclusive: 14.6 µM [activator, single point] | –
65 | CC(C)CCn1nnnc1CN1CCN(C(=O)c2ccco2)CC1 | – | inactive: -56.7%
66 | O=C(Cn1nc(-c2ccc(Cl)cc2)ccc1=O)NCCCN1CCN(Cc2ccccc2)CC1 | – | inactive: 20.6%
67 | Cc1cc(C)cc(-n2c(C)cc(/C=C3\C(=N)N4N=C(CC(C)C)SC4=NC3=O)c2C)c1 | – | inactive: 2.42%
68 | Cc1ccc(-c2[nH]nc(N)c2N=Nc2cccc(Cl)c2C)cc1 | inconclusive: 18.4 µM [activator, single point] | –

Sorted by formula weight (low to high): some entries from above
Row | Structure (SMILES) | Potency | re-replication activation
61 | O=C(O)c1csc(-c2cccs2)n1 | inconclusive: 0.13 µM [activator, partial curve, poor fit] | –
58 | Cc1ccc(O)c(-c2cc(-c3ccccc3C)[nH]n2)c1 | inconclusive: 20.6 µM [activator, single point] | –
48 | CN(C)CCCN(C(=O)c1ccc(C(=O)c2ccccc2)cc1)c1nc2ccc(F)cc2s1 | – | inactive: -1.32%
